Data taken from US11090319B2, “Therapeutic uses of pharmaceutical compositions comprising cyclic boronic acid ester derivatives” (Melinta Subsidiary Corp., priority 2010, dated 2021).
At least one read-out could not be matched to a standard name with certainty.

What was measured:
[1] = system: strains expressing class A ESBLs; assay type: cell-based
EC1007 KPC-3 = assay type: cell-based, Escherichia coli
[2] = system: strains expressing class C and D enzymes; assay type: cell-based

Row | SMILES | AZT MPC4 CTX-M-14 KP1005 [1] | AZT MPC4 CTX-M-15 KP1009 [1] | AZT MPC4 SHV-5 ec308 [1] | AZT MPC4 SHV-12 KP1010 [1] | AZT MPC4 SHV-18 KP1012 [1] | AZT MPC4 TEM-10 EC1009 [1] | AZT MPC4 TEM-10 ec302 [1] | AZT MPC4 TEM-26 ec304 [1] | AZT MPC4 KPC-3 EC1007 (EC1007 KPC-3) | AZT MPC@4 CMY-6 EC1010 [2] | AZT MPC@4 ECL1002 [2] | AZT MPC@4 OXA-2, KPX1001 [2] | AZT MPC@4 OXA-10, qnrB4 KP1007 [2] | AZT MPC@4 PAM2035 [2]
1 | CO/N=C(\C(=O)N[C@H]1CC[C@@H](CC(=O)O)OB1O)c1csc(N)n1 [Compound 40, 2-((3R,6S)-3-((Z)-2-(2-aminothiazol-4-yl)-2-(methoxyimino)acetamido)-2-hydroxy-1,2-oxaborinan-6-yl)acetic acid] | Z (key: X: MPC@4 of less than 5 μg/mL; Y: MPC@4 of 5 μg/mL to 20 μg/mL; Z: MPC@4 of greater than 20 μg/mL) | Z (key: X: MPC@4 of less than 5 μg/mL; Y: MPC@4 of 5 μg/mL to 20 μg/mL; Z: MPC@4 of greater than 20 μg/mL) | Z (key: X: MPC@4 of less than 5 μg/mL; Y: MPC@4 of 5 μg/mL to 20 μg/mL; Z: MPC@4 of greater than 20 μg/mL) | Y (key: X: MPC@4 of less than 5 μg/mL; Y: MPC@4 of 5 μg/mL to 20 μg/mL; Z: MPC@4 of greater than 20 μg/mL) | Z (key: X: MPC@4 of less than 5 μg/mL; Y: MPC@4 of 5 μg/mL to 20 μg/mL; Z: MPC@4 of greater than 20 μg/mL) | Z (key: X: MPC@4 of less than 5 μg/mL; Y: MPC@4 of 5 μg/mL to 20 μg/mL; Z: MPC@4 of greater than 20 μg/mL) | Z (key: X: MPC@4 of less than 5 μg/mL; Y: MPC@4 of 5 μg/mL to 20 μg/mL; Z: MPC@4 of greater than 20 μg/mL) | Z (key: X: MPC@4 of less than 5 μg/mL; Y: MPC@4 of 5 μg/mL to 20 μg/mL; Z: MPC@4 of greater than 20 μg/mL) | Z (key: X: MPC@4 of less than 5 μg/mL; Y: MPC@4 of 5 μg/mL to 20 μg/mL; Z: MPC@4 of greater than 20 μg/mL) | Z (key: X: MPC@4 of less than 5 μg/mL; Y: MPC@4 of 5 μg/mL to 20 μg/mL; Z: MPC@4 of greater than 20 μg/mL) | Z (key: X: MPC@4 of less than 5 μg/mL; Y: MPC@4 of 5 μg/mL to 20 μg/mL; Z: MPC@4 of greater than 20 μg/mL) | Z (key: X: MPC@4 of less than 5 μg/mL; Y: MPC@4 of 5 μg/mL to 20 μg/mL; Z: MPC@4 of greater than 20 μg/mL) | Z (key: X: MPC@4 of less than 5 μg/mL; Y: MPC@4 of 5 μg/mL to 20 μg/mL; Z: MPC@4 of greater than 20 μg/mL) | Z (key: X: MPC@4 of less than 5 μg/mL; Y: MPC@4 of 5 μg/mL to 20 μg/mL; Z: MPC@4 of greater than 20 μg/mL)
2 | CSCCC(N)C(=O)N[C@H]1CC[C@@H](CC(=O)O)OB1O (stereo partly drawn) [Compound 41, 2-((3R,6S)-3-(2-amino-4-(methylthio)butanamido)-2-hydroxy-1,2-oxaborinan-6-yl)acetic acid] | Z (key: X: MPC@4 of less than 5 μg/mL; Y: MPC@4 of 5 μg/mL to 20 μg/mL; Z: MPC@4 of greater than 20 μg/mL) | Z (key: X: MPC@4 of less than 5 μg/mL; Y: MPC@4 of 5 μg/mL to 20 μg/mL; Z: MPC@4 of greater than 20 μg/mL) | Z (key: X: MPC@4 of less than 5 μg/mL; Y: MPC@4 of 5 μg/mL to 20 μg/mL; Z: MPC@4 of greater than 20 μg/mL) | Z (key: X: MPC@4 of less than 5 μg/mL; Y: MPC@4 of 5 μg/mL to 20 μg/mL; Z: MPC@4 of greater than 20 μg/mL) | Z (key: X: MPC@4 of less than 5 μg/mL; Y: MPC@4 of 5 μg/mL to 20 μg/mL; Z: MPC@4 of greater than 20 μg/mL) | Z (key: X: MPC@4 of less than 5 μg/mL; Y: MPC@4 of 5 μg/mL to 20 μg/mL; Z: MPC@4 of greater than 20 μg/mL) | Z (key: X: MPC@4 of less than 5 μg/mL; Y: MPC@4 of 5 μg/mL to 20 μg/mL; Z: MPC@4 of greater than 20 μg/mL) | Z (key: X: MPC@4 of less than 5 μg/mL; Y: MPC@4 of 5 μg/mL to 20 μg/mL; Z: MPC@4 of greater than 20 μg/mL) | X (key: X: MPC@4 of less than 5 μg/mL; Y: MPC@4 of 5 μg/mL to 20 μg/mL; Z: MPC@4 of greater than 20 μg/mL) | Z (key: X: MPC@4 of less than 5 μg/mL; Y: MPC@4 of 5 μg/mL to 20 μg/mL; Z: MPC@4 of greater than 20 μg/mL) | Z (key: X: MPC@4 of less than 5 μg/mL; Y: MPC@4 of 5 μg/mL to 20 μg/mL; Z: MPC@4 of greater than 20 μg/mL) | Z (key: X: MPC@4 of less than 5 μg/mL; Y: MPC@4 of 5 μg/mL to 20 μg/mL; Z: MPC@4 of greater than 20 μg/mL) | Z (key: X: MPC@4 of less than 5 μg/mL; Y: MPC@4 of 5 μg/mL to 20 μg/mL; Z: MPC@4 of greater than 20 μg/mL) | Z (key: X: MPC@4 of less than 5 μg/mL; Y: MPC@4 of 5 μg/mL to 20 μg/mL; Z: MPC@4 of greater than 20 μg/mL)
3 | NC(Cc1cccnc1)C(=O)N[C@H]1CC[C@@H](CC(=O)O)OB1O (stereo partly drawn) [Compound 42, 2-((3R,6S)-3-(2-amino-3-(pyridin-3-yl)propanamido)-2-hydroxy-1,2-oxaborinan-6-yl)acetic acid] | Z (key: X: MPC@4 of less than 5 μg/mL; Y: MPC@4 of 5 μg/mL to 20 μg/mL; Z: MPC@4 of greater than 20 μg/mL) | Z (key: X: MPC@4 of less than 5 μg/mL; Y: MPC@4 of 5 μg/mL to 20 μg/mL; Z: MPC@4 of greater than 20 μg/mL) | Z (key: X: MPC@4 of less than 5 μg/mL; Y: MPC@4 of 5 μg/mL to 20 μg/mL; Z: MPC@4 of greater than 20 μg/mL) | Z (key: X: MPC@4 of less than 5 μg/mL; Y: MPC@4 of 5 μg/mL to 20 μg/mL; Z: MPC@4 of greater than 20 μg/mL) | Z (key: X: MPC@4 of less than 5 μg/mL; Y: MPC@4 of 5 μg/mL to 20 μg/mL; Z: MPC@4 of greater than 20 μg/mL) | Z (key: X: MPC@4 of less than 5 μg/mL; Y: MPC@4 of 5 μg/mL to 20 μg/mL; Z: MPC@4 of greater than 20 μg/mL) | Z (key: X: MPC@4 of less than 5 μg/mL; Y: MPC@4 of 5 μg/mL to 20 μg/mL; Z: MPC@4 of greater than 20 μg/mL) | Z (key: X: MPC@4 of less than 5 μg/mL; Y: MPC@4 of 5 μg/mL to 20 μg/mL; Z: MPC@4 of greater than 20 μg/mL) | X (key: X: MPC@4 of less than 5 μg/mL; Y: MPC@4 of 5 μg/mL to 20 μg/mL; Z: MPC@4 of greater than 20 μg/mL) | Z (key: X: MPC@4 of less than 5 μg/mL; Y: MPC@4 of 5 μg/mL to 20 μg/mL; Z: MPC@4 of greater than 20 μg/mL) | Z (key: X: MPC@4 of less than 5 μg/mL; Y: MPC@4 of 5 μg/mL to 20 μg/mL; Z: MPC@4 of greater than 20 μg/mL) | Z (key: X: MPC@4 of less than 5 μg/mL; Y: MPC@4 of 5 μg/mL to 20 μg/mL; Z: MPC@4 of greater than 20 μg/mL) | Z (key: X: MPC@4 of less than 5 μg/mL; Y: MPC@4 of 5 μg/mL to 20 μg/mL; Z: MPC@4 of greater than 20 μg/mL) | Z (key: X: MPC@4 of less than 5 μg/mL; Y: MPC@4 of 5 μg/mL to 20 μg/mL; Z: MPC@4 of greater than 20 μg/mL)
4 | O=C(O)C[C@@H]1CC[C@H](NC(=O)Cc2cccnc2)B(O)O1 [Compound 43, 2-((3R,6S)-2-hydroxy-3-(2-(pyridin-3-yl)acetamido)-1,2-oxaborinan-6-yl)acetic acid] | Z (key: X: MPC@4 of less than 5 μg/mL; Y: MPC@4 of 5 μg/mL to 20 μg/mL; Z: MPC@4 of greater than 20 μg/mL) | Z (key: X: MPC@4 of less than 5 μg/mL; Y: MPC@4 of 5 μg/mL to 20 μg/mL; Z: MPC@4 of greater than 20 μg/mL) | Z (key: X: MPC@4 of less than 5 μg/mL; Y: MPC@4 of 5 μg/mL to 20 μg/mL; Z: MPC@4 of greater than 20 μg/mL) | Y (key: X: MPC@4 of less than 5 μg/mL; Y: MPC@4 of 5 μg/mL to 20 μg/mL; Z: MPC@4 of greater than 20 μg/mL) | Y (key: X: MPC@4 of less than 5 μg/mL; Y: MPC@4 of 5 μg/mL to 20 μg/mL; Z: MPC@4 of greater than 20 μg/mL) | Y (key: X: MPC@4 of less than 5 μg/mL; Y: MPC@4 of 5 μg/mL to 20 μg/mL; Z: MPC@4 of greater than 20 μg/mL) | Z (key: X: MPC@4 of less than 5 μg/mL; Y: MPC@4 of 5 μg/mL to 20 μg/mL; Z: MPC@4 of greater than 20 μg/mL) | Y (key: X: MPC@4 of less than 5 μg/mL; Y: MPC@4 of 5 μg/mL to 20 μg/mL; Z: MPC@4 of greater than 20 μg/mL) | X (key: X: MPC@4 of less than 5 μg/mL; Y: MPC@4 of 5 μg/mL to 20 μg/mL; Z: MPC@4 of greater than 20 μg/mL) | Y (key: X: MPC@4 of less than 5 μg/mL; Y: MPC@4 of 5 μg/mL to 20 μg/mL; Z: MPC@4 of greater than 20 μg/mL) | Y (key: X: MPC@4 of less than 5 μg/mL; Y: MPC@4 of 5 μg/mL to 20 μg/mL; Z: MPC@4 of greater than 20 μg/mL) | Y (key: X: MPC@4 of less than 5 μg/mL; Y: MPC@4 of 5 μg/mL to 20 μg/mL; Z: MPC@4 of greater than 20 μg/mL) | Z (key: X: MPC@4 of less than 5 μg/mL; Y: MPC@4 of 5 μg/mL to 20 μg/mL; Z: MPC@4 of greater than 20 μg/mL) | Y (key: X: MPC@4 of less than 5 μg/mL; Y: MPC@4 of 5 μg/mL to 20 μg/mL; Z: MPC@4 of greater than 20 μg/mL)
5 | O=C(O)C[C@@H]1CC[C@H](NC(=O)[C@@H]2CCCCN2)B(O)O1 [Compound 45, 2-((3R,6S)-2-hydroxy-3-((S)-piperidine-2-carboxamido)-1,2-oxaborinan-6-yl)acetic acid] | Z (key: X: MPC@4 of less than 5 μg/mL; Y: MPC@4 of 5 μg/mL to 20 μg/mL; Z: MPC@4 of greater than 20 μg/mL) | Z (key: X: MPC@4 of less than 5 μg/mL; Y: MPC@4 of 5 μg/mL to 20 μg/mL; Z: MPC@4 of greater than 20 μg/mL) | Z (key: X: MPC@4 of less than 5 μg/mL; Y: MPC@4 of 5 μg/mL to 20 μg/mL; Z: MPC@4 of greater than 20 μg/mL) | Z (key: X: MPC@4 of less than 5 μg/mL; Y: MPC@4 of 5 μg/mL to 20 μg/mL; Z: MPC@4 of greater than 20 μg/mL) | Z (key: X: MPC@4 of less than 5 μg/mL; Y: MPC@4 of 5 μg/mL to 20 μg/mL; Z: MPC@4 of greater than 20 μg/mL) | Z (key: X: MPC@4 of less than 5 μg/mL; Y: MPC@4 of 5 μg/mL to 20 μg/mL; Z: MPC@4 of greater than 20 μg/mL) | Z (key: X: MPC@4 of less than 5 μg/mL; Y: MPC@4 of 5 μg/mL to 20 μg/mL; Z: MPC@4 of greater than 20 μg/mL) | Z (key: X: MPC@4 of less than 5 μg/mL; Y: MPC@4 of 5 μg/mL to 20 μg/mL; Z: MPC@4 of greater than 20 μg/mL) | X (key: X: MPC@4 of less than 5 μg/mL; Y: MPC@4 of 5 μg/mL to 20 μg/mL; Z: MPC@4 of greater than 20 μg/mL) | Z (key: X: MPC@4 of less than 5 μg/mL; Y: MPC@4 of 5 μg/mL to 20 μg/mL; Z: MPC@4 of greater than 20 μg/mL) | Z (key: X: MPC@4 of less than 5 μg/mL; Y: MPC@4 of 5 μg/mL to 20 μg/mL; Z: MPC@4 of greater than 20 μg/mL) | Z (key: X: MPC@4 of less than 5 μg/mL; Y: MPC@4 of 5 μg/mL to 20 μg/mL; Z: MPC@4 of greater than 20 μg/mL) | Z (key: X: MPC@4 of less than 5 μg/mL; Y: MPC@4 of 5 μg/mL to 20 μg/mL; Z: MPC@4 of greater than 20 μg/mL) | Z (key: X: MPC@4 of less than 5 μg/mL; Y: MPC@4 of 5 μg/mL to 20 μg/mL; Z: MPC@4 of greater than 20 μg/mL)
